Data from paper PMC6925144, “A prospective compound screening contest identified broader inhibitors for Sirtuin 1” (Scientific Reports, 2019).
The full ranking holds about 3,200 compounds; the median of “TSA(with NAD+) / Primary screening (TSA) / delta Tm (K)” is about -0.04, and the highest 2% start at about 0.37. The list shows a part of the results.

By UniProt entry, the sequences of proteins in these tests, tags left out. Residues count along the entry.
UniProt Q96EB6, 2-747 limits assumed: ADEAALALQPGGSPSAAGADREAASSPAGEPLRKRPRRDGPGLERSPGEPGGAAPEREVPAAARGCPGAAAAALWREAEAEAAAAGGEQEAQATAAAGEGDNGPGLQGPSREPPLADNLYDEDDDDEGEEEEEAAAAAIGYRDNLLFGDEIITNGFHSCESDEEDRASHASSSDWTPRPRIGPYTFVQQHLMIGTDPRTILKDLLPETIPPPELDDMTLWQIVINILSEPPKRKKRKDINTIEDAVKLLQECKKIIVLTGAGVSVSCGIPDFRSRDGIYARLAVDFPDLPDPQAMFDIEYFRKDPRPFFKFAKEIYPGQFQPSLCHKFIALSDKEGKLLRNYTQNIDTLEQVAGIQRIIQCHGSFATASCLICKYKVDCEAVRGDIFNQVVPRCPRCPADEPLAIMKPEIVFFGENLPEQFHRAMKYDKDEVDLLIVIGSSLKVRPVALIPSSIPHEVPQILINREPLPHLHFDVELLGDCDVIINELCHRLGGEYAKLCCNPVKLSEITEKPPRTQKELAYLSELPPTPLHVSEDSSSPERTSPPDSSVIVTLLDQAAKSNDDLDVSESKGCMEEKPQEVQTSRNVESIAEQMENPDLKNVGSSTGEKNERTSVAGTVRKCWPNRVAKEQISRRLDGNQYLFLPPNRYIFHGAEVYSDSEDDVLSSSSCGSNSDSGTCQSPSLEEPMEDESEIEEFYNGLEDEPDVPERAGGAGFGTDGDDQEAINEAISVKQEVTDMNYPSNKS

target: NAD-dependent deacetylase Sirtuin 1 (human, UniProt Q96EB6); assay: primary screen, delta tm; parameters: single well (n = 1, as 'the same TSA'); conditions: 10 µM

| Structure (SMILES) | TSA(with NAD+) / Primary screening (TSA) / delta Tm (K) |
| --- | --- |
| CC(=O)Nc1cccc2c1CCN(c1cc(=O)n3ccccc3n1)C2 | -0.03 |
| O=C(Nc1cccc(S(=O)(=O)N2CCOCC2)c1)c1cn(-c2ccccc2)nc1-c1ccc(Cl)cc1 | 0.63 |
| CC(C)(C)c1ccccc1NC(=O)c1ccc(S(=O)(=O)N2CCCC2)cc1 | -0.12 |
| CCOC(=O)CN | -0.28 |
| CN(C)C(C)(C)CNCc1c[nH]nc1-c1ccc2c(c1)OCCO2 | -0.05 |
| COc1cccc(/C=N/c2ccc(C)cc2C)c1O | -0.05 |
| Cc1ccc(NC(=O)c2ccc(Cl)nc2Cl)cc1Cl | 0.02 |
| Cc1ccc(OCc2nc3ccccc3n2Cc2ccccc2)cc1 | -0.21 |
| CCOc1ccc(C(NC(=O)c2cccc(C(N)=O)c2)c2ccccc2)cc1 (stereo not shown) | -0.09 |
| Cc1sc2ncnc(N3CCC(C(=O)Nc4nn5cnnc5s4)CC3)c2c1C | 0.06 |
| NC(=O)C1CCN(C(=O)c2ccn(-c3ccc(F)cc3)n2)C1 (stereo not shown) | -0.21 |
| O=C(OCC(=O)C12CC3CC(CC(C3)C1)C2)c1nn(Cc2ccccc2)c(=O)c2ccccc12 | 0.03 |
| Cc1cc(C(=O)O)c2ccccc2n1 | -0.16 |
| CC1CCc2[nH]c3ccc(C(=O)O)cc3c2C1 (stereo not shown) | -0.09 |
| N#CCc1c[nH]c2ccc(C(N)=O)cc12 | -0.23 |
| Cc1ccc2c(COc3ncnc4sc5c(c34)CCC5)cc(=O)oc2c1C | -0.09 |
| O=c1cc(N2CCc3ccccc3CC2)nc2ccccn12 | -0.11 |
| Nc1nc(CN2CC(CO)Oc3ccccc32)nc(Nc2ccc(F)cc2)n1 (stereo not shown) | 0.15 |
| CC1CN(S(=O)(=O)c2cccc(C(=O)OCC(=O)COC(=O)c3cccc(S(=O)(=O)N4CC(C)OC(C)C4)c3)c2)CC(C)O1 (stereo not shown) | -0.34 |
| NC(=O)C1CCCN(c2ncnc3cc(Cl)ccc23)C1 (stereo not shown) | -0.18 |
| CC1COCCN1c1ncnc2ccsc12 (stereo not shown) | 0.03 |

Five consecutive records from above:

| Structure (SMILES) | TSA(with NAD+) / Primary screening (TSA) / delta Tm (K) |
| --- | --- |
| NC(=O)C1CCN(C(=O)c2ccn(-c3ccc(F)cc3)n2)C1 (stereo not shown) | -0.21 |
| O=C(OCC(=O)C12CC3CC(CC(C3)C1)C2)c1nn(Cc2ccccc2)c(=O)c2ccccc12 | 0.03 |
| Cc1cc(C(=O)O)c2ccccc2n1 | -0.16 |
| CC1CCc2[nH]c3ccc(C(=O)O)cc3c2C1 (stereo not shown) | -0.09 |
| N#CCc1c[nH]c2ccc(C(N)=O)cc12 | -0.23 |

(further entries)

| Structure (SMILES) | TSA(with NAD+) / Primary screening (TSA) / delta Tm (K) |
| --- | --- |
| Cc1ccccc1COC(=O)/C(=C\c1ccccc1)n1nnnc1C | -0.21 |
| COc1cccc(C2C(C(=O)/C=C/c3ccco3)=C(O)C(=O)N2CCCN2CCOCC2)c1OC (stereo not shown) | -0.01 |
| CC[C@@H]1C[C@H]1CN | -0.09 |
| Cc1cnc(C(=O)Nc2ccc(I)cc2C)cn1 | -0.09 |
| NC(=O)C1(c2ccccc2)CCNC1 (stereo not shown) | -0.05 |
| NC(=O)Cn1cnc2c(cnn2-c2ccccc2)c1=O | -0.01 |
| NC(=O)c1c(NC(=O)CSc2nc3scc(-c4cccs4)c3c(=O)n2-c2ccccc2)sc2c1CCC2 | 0.09 |
| COc1ccc(C(=O)C2=C(O)C(=O)N(CCCN3CCOCC3)C2c2ccccn2)cc1 (stereo not shown) | -0.04 |
| O=C1NC(=S)NC(=O)C1=NNc1ccc(SC(F)F)cc1 | 0.06 |
| CCCc1nnc(SC(C)C(=O)Nc2ccc(C(N)=O)cc2)n1CC(=O)O (stereo not shown) | -0.23 |
| COc1ccc(NC(=O)CCc2ccc(F)c(F)c2)cc1OCc1cn2ccccc2n1 | -0.18 |
| NCC(O)C1CC1 (stereo not shown) | -0.24 |
| O=C1CCCCCN1Cc1nnc(Sc2ncnc3cc(-c4ccc(Cl)cc4)sc23)o1 | 0.18 |
| Clc1ccc(-c2nnn[nH]2)cc1 | 0.02 |
| O=C(O)c1ccc2[nH]ccc2c1 | -0.01 |
| CCSCCC(=O)O | -0.06 |
| O=C1NC2(CCc3ccccc3C2)C(=O)N1Cc1nc2ccccc2s1 (stereo not shown) | -0.11 |
| CCCC(C)NC(=O)COC(=O)C1CCC(=O)N(c2ccc(OC)cc2)C1c1ccc(OC)cc1 (stereo not shown) | -0.19 |
| Cc1ccc(OCc2nc3ccccc3n2Cc2ccccc2C)cc1 | -0.14 |
| CCOC(=O)c1sc(NC(=O)c2cnc3ccccc3n2)nc1-c1ccccc1 | 0.09 |
| Cn1c(SC2CCOC2=O)nc2ccccc21 (stereo not shown) | -0.14 |

| Structure (SMILES) | TSA(with NAD+) / Primary screening (TSA) / delta Tm (K) |
| --- | --- |
| CC1CN(C(C(=O)Nc2cnc3ccccc3c2)C(C)C)CC(C)O1 (stereo not shown) | -0.01 |
| O=C(Cc1csc(-c2ccccc2)n1)Nc1ccc(N2CCN(Cc3ccccc3)CC2)cc1 | 0.09 |
| CCOc1cc(C(=O)Nc2ncc(Cc3cccc(C)c3)s2)ccc1OCC(=O)N1CCCCC1 | -0.02 |
| c1ccc2c(c1)oc1c(N3CCC4(CCOC4)C3)ncnc12 (stereo not shown) | -0.03 |
| COC(=O)CC1c2cc(OC)c(OC)cc2CCN1Cc1ccc(C(N)=O)cc1 (stereo not shown) | -0.08 |
| O=C(c1cc2cc(F)ccc2[nH]1)N1CCN(c2ncnc3sccc23)CC1 | -0.12 |
| Cc1onc(-c2ccccc2)c1C(=O)Nc1cccc2c1CCCC2 | -0.05 |
| CN(C(=O)CSc1ccccc1C(=O)OCc1cccc(S(=O)(=O)N(C)C)c1)C1CCCCC1 | -0.13 |
| CCCOc1ccc(C(=O)C2=C(O)C(=O)N(CCCN3CCOCC3)C2c2cccs2)cc1 (stereo not shown) | -0.06 |
| O=C(NCCc1ccc(Cl)s1)NC1CC1 | -0.03 |
| CC(C)Cc1cc(C(=O)n2ncc(C#N)c2N)[nH]n1 | -0.18 |
| NC(=O)c1ccc(COC(=O)c2ccc3c(c2)OCC(=O)N3)cc1 | -0.03 |
| CC(=O)c1cc(C(=O)NCCc2ccc(-c3csc(C)n3)s2)n(C)c1 | -0.01 |
| CCCc1nnc(S)[nH]1 | -0.18 |
| CC1=NNC(=O)/C1=C\c1cn(-c2ccccc2)nc1-c1cc2cc(Br)ccc2oc1=O | -0.13 |
| O=C(Nc1ccc(NC(=O)N2CCCCCC2)cc1)c1nc(Cl)ccc1Cl | 0.01 |
| O=C(CN1C(=O)c2ccccc2C1=O)c1ccc2c(c1)-c1ccccc1C2 | -0.16 |
| C/C(NCc1ccccc1)=C1/Sc2ccccc2C1=O | 0.16 |
| COC(=O)c1ccc(C2NC(=O)NC3=C2C(=O)N(CC(C)O)C3)cc1 (stereo not shown) | -0.05 |
